Assay results: PubChem BioAssay (NCATS)
The inconclusive results got no clear call from the source; some entries with a clear call stand among them for comparison. For some of these results: Potencies of inconclusive entries are doubtful fits and often do not repeat. The source made the active and inactive calls. Calls follow the shape of the dose curve; as a rule, active = well fitted cell-killing curve with a large enough effect; inconclusive = small, poorly fitted or top-dose-only effect, or effect the other way; inactive = no such curve, though single readings can be large or run the other way.

Columns and labels:
[1] = Quantitative High-Throughput drug screen in 47 multiple myeloma cell lines against the NCATS MIPE library collection: FR4_PLB cell viability assay (AID 1918924; also: nearly all actives have a fitted effect of over 35% in size); conditions: FR4_PLB myeloma cells viability, CellTiter-Glo ATP, 48 h; viability (% of DMSO control): at 45.8 µM (top of the series)
Procedure, shortened: (§1)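 Primary qHTS used for cherry-picking: cells at 500/well, library compounds for 48 h (37C, 5% CO2), luminescent ATP assay.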

[2] = Quantitative High-Throughput drug screen in 47 multiple myeloma cell lines against the NCATS MIPE library collection: EJM_DSMZ cell viability assay (AID 1918926; also: nearly all actives have a fitted effect of over 30% in size); conditions: EJM myeloma cell viability, CellTiter-Glo ATP, 48 h; viability, % of control: at 45.8 µM (top of the series)
Procedure, shortened: (§2)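 Relative luminescence from CellTiter-Glo served as the viability signal, referenced to DMSO-treated (100%) and cell-free medium (0%) controls. Treatment lasted 48 hours at 37C with 500 cells per well.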

[3] = Quantitative High-Throughput drug screen in 47 multiple myeloma cell lines against the NCATS MIPE library collection: AMO1_DSMZ cell viability assay (AID 1918927; also: nearly all actives have a fitted effect of over 30% in size); conditions: AMO1 myeloma cells viability, CellTiter-Glo ATP luminescence, 48 h; viability, % of DMSO: at 45.8 µM (top of the series)
Procedure, shortened: as §2

[4] = Quantitative High-Throughput drug screen in 47 multiple myeloma cell lines against the NCATS MIPE library collection: ARD_JJKsccE7 cell viability assay (AID 1918929); conditions: ARD myeloma cell line viability, CellTiter-Glo, 48 h; viability: at 45.8 µM (top of the series)
Procedure, shortened: as §2

[5] = Quantitative High-Throughput drug screen in 47 multiple myeloma cell lines against the NCATS MIPE library collection: Karpas620_DSMZ cell viability assay (AID 1918959); conditions: Karpas620 myeloma viability, CellTiter-Glo ATP luminescence, 48 h; viability (% of DMSO): at 45.8 µM (top of the series); also: nearly all actives have a fitted effect of over 30% in size
Procedure, shortened: as §1

[6] = Quantitative High-Throughput drug screen in 47 multiple myeloma cell lines against the NCATS MIPE library collection: Karpas417_ECACC cell viability assay (AID 1918961); conditions: Karpas417 myeloma viability, CellTiter-Glo ATP luminescence, 48 h; viability (% of DMSO): at 45.8 µM (top of the series)
Procedure, shortened: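 We plated 500 myeloma cells per well, pinned in MIPE 4.0 compounds, and incubated for 48 hours at 37C. ATP was then quantified with CellTiter-Glo, with DMSO and media-only wells defining 100% and 0%.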

[7] = Quantitative High-Throughput drug screen in 47 multiple myeloma cell lines against the NCATS MIPE library collection: ARP1_JJKsccF8 cell viability assay (AID 1918928; also: nearly all actives have a fitted effect of over 40% in size); conditions: ARP1 myeloma cells viability, CellTiter-Glo ATP, 48 h; viability: at 45.8 µM (top of the series)
Procedure, shortened: (§3)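 ATP readout (CellTiter-Glo), 48 h drug incubation, 37 °C/5% CO2, 500 cells per well; normalisation to DMSO (100%) and media-only (0%) controls.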

[8] = Quantitative High-Throughput drug screen in 47 multiple myeloma cell lines against the NCATS MIPE library collection: KMM1_JCRB cell viability assay (AID 1918960); conditions: KMM1 myeloma viability, CellTiter-Glo ATP luminescence, 48 h; viability (% of DMSO): at 45.8 µM (top of the series); also: nearly all actives have a fitted effect of over 30% in size
Procedure, shortened: as §3

[9] = Quantitative High-Throughput drug screen in 47 multiple myeloma cell lines against the NCATS MIPE library collection: Delta47_JCRB cell viability assay (AID 1918925; also: nearly all actives have a fitted effect of over 45% in size); conditions: Delta47 myeloma viability, CellTiter-Glo ATP, 48 h; viability (% of DMSO): at 45.8 µM (top of the series)
Procedure, shortened: as §2
Potency is read from the fitted curve at half-maximal effect.

SMILES | Potency [1] | Potency [2] | Potency [3] | Potency [4] | Potency [5] | Potency [6] | Potency [7] | Potency [8] | viability (% of DMSO) [6] | Potency [9] | viability (% of DMSO control) [1]
CCN1CCCC1CNC(=O)c1cc(S(N)(=O)=O)ccc1OC (stereo not drawn) | inactive | inactive | inactive | inactive | inactive | inactive | – | – | – | – | –
O=C1CSC(=O)N1C(CCc1ccncc1)COc1ccc(-c2cccc([N+](=O)[O-])c2)cc1 (stereo not drawn) | active: 18.7 µM | active: 0.935 µM | inactive | – | inactive | active: 0.0469 µM | – | – | – | – | –
C[C@H]1COC2=C1C(=O)C(=O)c1c2ccc2c1CCCC2(C)C | inconclusive: 33.2 µM [cytotoxic, single point] | inconclusive: 23.5 µM [cytotoxic, partial curve, poor fit] | inconclusive: 14.8 µM [cytotoxic, partial curve] | – | inconclusive: 33.2 µM [cytotoxic, single point] | inconclusive: 16.6 µM [cytotoxic, partial curve, poor fit] | – | – | – | – | –
CCn1c(=O)c2c(nc(C=Cc3ccc(OC)c(OC)c3)n2C)n(CC)c1=O | inactive | inconclusive: 9.35 µM [cytotoxic, partial curve, poor fit] | inconclusive: 33.2 µM [cytotoxic, single point] | – | – | inactive | inactive | inconclusive: 20.9 µM [cytotoxic, partial curve] | – | – | –
CCOc1cc(N)c(Cl)cc1C(=O)NCC1CN(Cc2ccc(F)cc2)CCO1 (stereo not drawn) | inconclusive: 0.001 µM | inactive | inconclusive: 1.32 µM [rising, partial curve, poor fit] | inconclusive: 0.0332 µM [rising, full curve, poor fit] | – | inconclusive: 0.0019 µM [cytotoxic, full curve, poor fit] | inactive | – | – | – | –
COc1cc2ncnc(Nc3cc(Br)c(O)c(Br)c3)c2cc1OC | inconclusive: 0.0235 µM [cytotoxic, full curve, poor fit] | active: 0.003 µM | inconclusive: 0.0148 µM [cytotoxic, full curve, poor fit] | – | inconclusive: 6.62 µM [cytotoxic, partial curve] | – | – | inconclusive: 18.7 µM [cytotoxic, partial curve] | – | – | –
CN(C)c1nc(Cc2ccc(NC(=O)c3ccc4ccccc4c3)cc2)nc(Cl)c1CC(=O)O | inactive | inconclusive: 1.48 µM [cytotoxic, full curve, poor fit] | inconclusive: 0.296 µM [cytotoxic, full curve, poor fit] | inactive | – | inconclusive: 0.469 µM [cytotoxic, full curve, poor fit] | – | inconclusive: 20.9 µM [cytotoxic, partial curve, poor fit] | – | – | –
S=P(N1CC1)(N1CC1)N1CC1 | inactive | inactive | inconclusive: 0.0066 µM [cytotoxic, full curve, poor fit] | inconclusive: 0.0418 µM [cytotoxic, full curve, poor fit] | – | inconclusive: 16.6 µM [rising, partial curve, poor fit] | inactive | inconclusive: 0.0264 µM [cytotoxic, full curve, poor fit] | – | – | –
Cc1[nH]nc2ccc(-c3cncc(OC[C@@H](N)Cc4ccccc4)c3)cc12 | active: 4.18 µM | active: 1.87 µM | active: 0.935 µM | active: 2.09 µM | – | inconclusive: 37.2 µM [rising, partial curve, poor fit] | – | – | – | – | –
O=C(Nc1cccc2c(=O)cc(-c3nn[nH]n3)oc12)c1ccc(OCCCCc2ccccc2)cc1 | inconclusive: 37.2 µM [cytotoxic, single point] | inactive | inconclusive: 33.2 µM [cytotoxic, single point] | inconclusive: 18.7 µM [cytotoxic, partial curve] | inconclusive: 37.2 µM [cytotoxic, single point] | – | inconclusive: 3.32 µM [cytotoxic, full curve, poor fit] | inconclusive: 26.4 µM [cytotoxic, single point] | inconclusive: 9.26% [cytotoxic] | – | –
COc1cc2c(Nc3ccc(NC(=O)c4ccccc4)cc3)ncnc2cc1OCCCN1CCOCC1 | inconclusive: 37.2 µM [cytotoxic, single point] | inconclusive: 23.5 µM [cytotoxic, partial curve] | inconclusive: 1.66 µM [cytotoxic, full curve, poor fit] | inconclusive: 0.166 µM [cytotoxic, full curve, poor fit] | inactive | – | – | – | active: 112% | – | –
CC[C@]1(O)C[C@H]2CN(CCC3=c4ccccc4=N[C]3[C@@](C(=O)OC)(c3cc4c(cc3OC)N(C)[C@H]3[C@@](O)(C(N)=O)[C@H](O)[C@]5(CC)C=CCN6CC[C@]43[C@@H]65)C2)C1 | inactive | inconclusive: 0.0935 µM [cytotoxic, full curve] | active: 0.833 µM | – | – | – | – | – | – | – | –
Cn1c(=O)c2c(ncn2C)n(C)c1=O | inconclusive: 11.8 µM [cytotoxic, partial curve, poor fit] | inactive | inactive | – | – | inconclusive: 0.0105 µM [cytotoxic, full curve, poor fit] | – | inactive | – | – | –
Nc1nc(Cl)nc2c1ncn2[C@@H]1O[C@H](CO)[C@@H](O)[C@H]1F | inconclusive: 0.0019 µM [cytotoxic, full curve, poor fit] | inconclusive: 2.35 µM [cytotoxic, partial curve] | active: 0.0418 µM | – | – | inconclusive: 33.2 µM [rising, partial curve, poor fit] | active: 2.35 µM | inconclusive: 33.2 µM [rising, single point] | – | – | –
Cc1cc2c(F)c(Oc3ncnn4cc(OC[C@@H](C)O)c(C)c34)ccc2[nH]1 | inactive | inconclusive: 20.9 µM [cytotoxic, partial curve] | active: 4.69 µM | inconclusive: 5.26 µM [cytotoxic, partial curve, poor fit] | – | inconclusive: 16.6 µM [rising, partial curve, poor fit] | inconclusive: 4.18 µM [cytotoxic, full curve, poor fit] | inconclusive: 6.62 µM [cytotoxic, partial curve, poor fit] | – | – | –
NCCCCNCCCN | inconclusive: 37.2 µM [cytotoxic, single point] | active: 23.5 µM | inactive | inactive | – | – | – | inconclusive: 18.7 µM [cytotoxic, partial curve, poor fit] | – | – | –
COc1cc2c(N3CCN(C(=O)Nc4ccc(OC(C)C)cc4)CC3)ncnc2cc1OCCCN1CCCCC1 | inconclusive: 37.2 µM [cytotoxic, single point] | inconclusive: 37.2 µM [cytotoxic, single point] | inactive | inactive | inactive | inconclusive: 2.09 µM [rising, full curve, poor fit] | inconclusive: 33.2 µM [cytotoxic, single point] | inactive | – | – | –
CN1CCN(c2ncc(-c3cc(Cl)cc(Cl)c3Cl)c(N)n2)CC1 | inactive | inconclusive: 0.0053 µM [rising, full curve, poor fit] | inconclusive: 37.2 µM [cytotoxic, single point] | – | – | – | inactive | inconclusive: 33.2 µM [cytotoxic, single point] | – | – | –
O=C(O)CCCc1c[nH]c2ccccc12 | inconclusive: 0.372 µM [cytotoxic, full curve, poor fit] | inactive | inconclusive: 0.0023 µM [cytotoxic, full curve, poor fit] | inactive | – | inconclusive: 0.166 µM [rising, full curve, poor fit] | inconclusive: 2.09 µM [cytotoxic, full curve, poor fit] | – | – | – | –
CNc1nccc(-c2cccnc2Oc2cc(C(=O)Nc3cccc(C(F)(F)F)c3)ccc2C)n1 | active: 16.6 µM | – | – | – | – | – | – | inconclusive: 5.26 µM [cytotoxic, partial curve] | – | active: 16.6 µM | –
CC=C1NC(=O)[C@H]2CSSCCC=C[C@H](CC(=O)N[C@H](C(C)C)C(=O)N2)OC(=O)[C@H](C(C)C)NC1=O | active: 0.0105 µM | active: 0.0296 µM | – | – | – | – | – | – | – | – | –
C[C@@H](Cc1cc2c(c(C(N)=O)c1)N(CCCO)CC2)NCCOc1ccccc1OCC(F)(F)F | inactive | inactive | inactive | inconclusive: 26.4 µM [cytotoxic, partial curve, poor fit] | inconclusive: 41.8 µM [cytotoxic, partial curve, poor fit] | – | inactive | inconclusive: 29.6 µM [cytotoxic, single point] | – | – | –
Cc1ccc(S(=O)(=O)OCC(=O)Nc2ccc(C(=O)O)c(O)c2)cc1 | inconclusive: 33.2 µM [cytotoxic, single point] | inconclusive: 26.4 µM [cytotoxic, partial curve, poor fit] | inactive | – | – | inconclusive: 23.5 µM [cytotoxic, partial curve, poor fit] | – | inactive | – | – | –
CCc1cc(C(C)=NOCc2ccc(C3CCCCC3)c(C(F)(F)F)c2)ccc1CN1CC(C(=O)O)C1 | – | inconclusive: 37.2 µM [cytotoxic, single point] | inconclusive: 3.32 µM [cytotoxic, full curve] | – | inconclusive: 0.662 µM [cytotoxic, full curve, poor fit] | active: 0.059 µM | – | inconclusive: 4.69 µM [cytotoxic, full curve] | – | – | inconclusive: 51.8% [cytotoxic]

Single records, from the list above. Order of values: Potency [1]	Potency [2]	Potency [3]	Potency [4]	Potency [5]	Potency [6]	Potency [7]	Potency [8]	viability (% of DMSO) [6]	Potency [9]	viability (% of DMSO control) [1]
O=C(Nc1cccc2c(=O)cc(-c3nn[nH]n3)oc12)c1ccc(OCCCCc2ccccc2)cc1 is listed with inconclusive: 37.2 µM [cytotoxic, single point]	inactive	inconclusive: 33.2 µM [cytotoxic, single point]	inconclusive: 18.7 µM [cytotoxic, partial curve]	inconclusive: 37.2 µM [cytotoxic, single point]	–	inconclusive: 3.32 µM [cytotoxic, full curve, poor fit]	inconclusive: 26.4 µM [cytotoxic, single point]	inconclusive: 9.26% [cytotoxic]	–	–
CCOc1cc(N)c(Cl)cc1C(=O)NCC1CN(Cc2ccc(F)cc2)CCO1 (stereo not drawn) is listed with inconclusive: 0.001 µM	inactive	inconclusive: 1.32 µM [rising, partial curve, poor fit]	inconclusive: 0.0332 µM [rising, full curve, poor fit]	–	inconclusive: 0.0019 µM [cytotoxic, full curve, poor fit]	inactive	–	–	–	–
